For the test, the target named is T1, YTHDF2 (mouse, endogenous in CD8 T cells) (mouse (endogenous in mouse CD8 T cells)) (UniProt Q91YT7).
T1 sequence: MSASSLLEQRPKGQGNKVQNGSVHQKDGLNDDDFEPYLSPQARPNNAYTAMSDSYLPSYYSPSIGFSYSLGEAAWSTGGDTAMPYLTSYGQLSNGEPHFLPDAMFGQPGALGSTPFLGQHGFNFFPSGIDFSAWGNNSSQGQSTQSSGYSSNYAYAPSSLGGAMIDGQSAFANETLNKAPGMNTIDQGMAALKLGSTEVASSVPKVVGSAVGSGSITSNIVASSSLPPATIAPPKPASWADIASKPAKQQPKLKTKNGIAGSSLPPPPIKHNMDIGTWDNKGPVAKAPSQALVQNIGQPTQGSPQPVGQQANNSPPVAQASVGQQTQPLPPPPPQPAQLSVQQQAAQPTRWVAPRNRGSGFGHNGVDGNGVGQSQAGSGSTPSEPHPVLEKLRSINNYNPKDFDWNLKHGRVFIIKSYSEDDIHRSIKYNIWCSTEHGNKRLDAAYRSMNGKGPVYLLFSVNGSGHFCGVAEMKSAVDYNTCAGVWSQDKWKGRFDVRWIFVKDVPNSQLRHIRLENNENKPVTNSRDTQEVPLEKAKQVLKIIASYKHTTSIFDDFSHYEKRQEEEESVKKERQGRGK
Nature of the test: affinity purification with mass spectrometry.

Sequences of proteins named here, by UniProt entry; tags and fusion partners are left off.
UniProt O08900: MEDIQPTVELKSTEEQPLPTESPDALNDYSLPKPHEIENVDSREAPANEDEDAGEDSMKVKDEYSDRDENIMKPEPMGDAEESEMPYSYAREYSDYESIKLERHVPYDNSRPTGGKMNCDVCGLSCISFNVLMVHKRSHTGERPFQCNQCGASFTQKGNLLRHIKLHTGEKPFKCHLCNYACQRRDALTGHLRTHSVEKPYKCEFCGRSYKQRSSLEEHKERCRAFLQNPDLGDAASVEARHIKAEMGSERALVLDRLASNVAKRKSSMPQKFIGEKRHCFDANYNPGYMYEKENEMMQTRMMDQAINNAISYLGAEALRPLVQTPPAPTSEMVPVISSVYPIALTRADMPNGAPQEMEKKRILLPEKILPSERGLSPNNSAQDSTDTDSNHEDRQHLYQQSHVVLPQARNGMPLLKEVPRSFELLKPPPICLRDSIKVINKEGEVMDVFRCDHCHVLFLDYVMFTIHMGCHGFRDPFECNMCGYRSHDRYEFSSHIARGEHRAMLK
UniProt Q03267: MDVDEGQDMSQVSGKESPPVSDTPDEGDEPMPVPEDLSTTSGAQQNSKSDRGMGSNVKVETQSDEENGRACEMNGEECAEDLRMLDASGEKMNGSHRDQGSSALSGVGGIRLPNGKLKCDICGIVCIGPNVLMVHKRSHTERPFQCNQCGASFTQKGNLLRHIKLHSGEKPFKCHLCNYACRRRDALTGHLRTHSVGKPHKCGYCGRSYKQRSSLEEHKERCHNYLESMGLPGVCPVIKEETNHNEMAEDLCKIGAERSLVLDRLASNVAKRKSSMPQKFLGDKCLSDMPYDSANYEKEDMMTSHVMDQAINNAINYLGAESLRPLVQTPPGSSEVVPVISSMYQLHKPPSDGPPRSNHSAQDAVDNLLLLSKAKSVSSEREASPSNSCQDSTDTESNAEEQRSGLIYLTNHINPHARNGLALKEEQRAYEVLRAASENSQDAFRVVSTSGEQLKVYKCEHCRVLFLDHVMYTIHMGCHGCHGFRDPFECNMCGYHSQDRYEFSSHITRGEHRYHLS

These are yes or no findings as the source states them, for the method shown. Binding seen in cells or lysates may run through a third protein. Here binding means that the protein was enriched with, or labelled near, the bait; the list need not be complete.

Consider “Aiolos (IKZF3) (mouse, endogenous in CD8 T cells) (from UniProt O08900 1-507)”, for which the binding entry was “binds”.

With “Ikaros (IKZF1) (mouse, endogenous in CD8 T cells) (from UniProt Q03267 1-517)”, the binding result is on record as “binds”.

The record behind these values is paper doi:10.1101/2024.07.11.603088.
